Test results taken from PubChem BioAssay AID248 (DTP/NCI, 2004).
The list shows only some results of the screen, not a fair sample: it gathers tests that were run many times, whatever their T/C, doses with no T/C, and many T/C values between a quarter and a half above the control. Other doses and runs of a compound stand elsewhere. T/C is the treated group as % of the vehicle group. Some entries give survivors of the animals treated and no T/C: the source files T/C as zero there, which appears to mark a toxic dose or a test without result, not a measured value. Some doses without a T/C left all or most animals alive at the check, yet need not have been tolerated: the source hardly ever lists a survival T/C far under the control, and the zero likely stands for such cases as well. Counts of survivors are from the toxicity check (mostly the fifth day) where no day follows; animals may have died later. Schedules are NCI's codes, read here as Q, the interval in days (D) or hours (H), X, the number of doses. Some schedule codes hold Z or #, which are not explained here. Some doses were run more than once; their values stand side by side, smallest first. Where survival is the endpoint, this PubChem deposit counts one and a half times the control or more as active, and values a quarter to a half above the control carry no call in these data; other NCI protocols may use other cut-offs. Some T/C values carry the count of animals alive at the toxicity check (mostly the fifth day); where none is given, no animal had died by that day.

Tested on: L1210 leukemia ip in BDF1 mice, survival T/C
Experiment: NCI In Vivo Anticancer Drug Screen. Data for tumor model L1210 Leukemia (intraperitoneal) in B6D2F1 (BDF1) mice
Settings: T/C endpoint: mean survival time, higher T/C = longer survival

What does the source list for `O=NN(CCF)C(=O)NC1CC2CCC1C2` (centres undefined)?
T/C (dose: 11.5 mg/kg/injection, schedule: Q01DX001 (ip), vehicle: other): 125 % of control; survivor count (dose: 37.0 mg/kg/injection, schedule: Q01DX001 (ip), vehicle: other): 2 of 10; survivor count (dose: 50.0 mg/kg/injection, schedule: Q01DX001 (ip), vehicle: other): 2 of 6; survivor count (dose: 56.0 mg/kg/injection, schedule: Q01DX001 (ip), vehicle: other): 0 of 10; survivor count (dose: 62.5 mg/kg/injection, schedule: Q01DX001 (ip), vehicle: other): 0 of 6; survivor count (dose: 75.0 mg/kg/injection, schedule: Q01DX001 (ip), vehicle: other): 0 of 6; survivor count (dose: 84.0 mg/kg/injection, schedule: Q01DX001 (ip), vehicle: other): 0 of 10 and 5 of 10; survivor count (dose: 87.5 mg/kg/injection, schedule: Q01DX001 (ip), vehicle: other): 0 of 6; survivor count (dose: 100.0 mg/kg/injection, schedule: Q01DX001 (ip), vehicle: other): 0 of 6; survivor count (dose: 125.0 mg/kg/injection, schedule: Q01DX001 (ip), vehicle: other): 0 of 6; survivor count (dose: 126.0 mg/kg/injection, schedule: Q01DX001 (ip), vehicle: other): 0 of 10 and 5 of 10; survivor count (dose: 150.0 mg/kg/injection, schedule: Q01DX001 (ip), vehicle: other): 0 of 6; survivor count (dose: 175.0 mg/kg/injection, schedule: Q01DX001 (ip), vehicle: other): 0 of 6

`CCCCCCCCCCCCNC(=O)C[N+](C)(C)Cc1ccc2c(c1)CCCC2` was tested. Which survivor count (dose: 10.0 mg/kg/injection, schedule: Q01DX009 (ip), vehicle: saline with Tween-80) did it give?
The survivor count was 2 of 6.

For `CCCC(=O)OCC1OC(n2ccc(N)nc2=O)C(O)C1OC(=O)CCC` (centres undefined), which survivor count (dose: 400.0 mg/kg/injection, schedule: Q01DX005 (ip), vehicle: Klucel (hydroxypropylcellulose) (HPC)) is on record?
The survivor count was 6 of 6.

With `OC1CCC(CC2CCCCC2)CC1` (centres undefined) as the compound, how does the survivor count (dose: 100.0 mg/kg/injection, schedule: Q04DX003 (ip), vehicle: saline with Tween-80) read?
Its survivor count is 6 of 6.

Which survivor count (dose: 200.0 mg/kg/injection, schedule: Q04DX003 (ip), vehicle: saline) does the source give for `O/N=C\C[n+]1cc2ccccc2cc1/C=N\O` here?
Its survivor count is 2 of 6.

What about the survivor count (dose: 400.0 mg/kg/injection, schedule: Q04DX003 (ip), vehicle: saline) of the same compound?
The survivor count was 0 of 6.

For `CC(=O)Nc1ccn(C2OC(COC(C)=O)C(OC(C)=O)C2OC(C)=O)c(=O)n1` (centres undefined), which T/C (dose: 37.0 mg/kg/injection, schedule: Q03HX024 (ip), vehicle: other) is on record?
Its T/C is 125 % of control.

What about the survivor count (dose: 50.0 mg/kg/injection, schedule: Q## X090 (ip), vehicle: carboxymethylcellulose (CMC)) of the same compound?
Its survivor count is 2 of 6.

What about the survivor count (dose: 100.0 mg/kg/injection, schedule: Q## X090 (ip), vehicle: carboxymethylcellulose (CMC)) of the same compound?
Its survivor count is 5 of 6.

What about the T/C (dose: 150.0 mg/kg/injection, schedule: Q01DX009 (ip), vehicle: other) of the same compound?
Its T/C is 125 % of control.

What about the T/C (dose: 178.0 mg/kg/injection, schedule: Q01DX Z (ip), vehicle: carboxymethylcellulose (CMC)) of the same compound?
The T/C was 127 % of control.

What about the survivor count (dose: 200.0 mg/kg/injection, schedule: Q## X090 (ip), vehicle: carboxymethylcellulose (CMC)) of the same compound?
Its survivor count is 1 of 6.

What about the T/C (dose: 250.0 mg/kg/injection, schedule: Q01DX009 (oral), vehicle: carboxymethylcellulose (CMC)) of the same compound?
Its T/C is 126 % of control.

And the T/C (dose: 267.0 mg/kg/injection, schedule: Q01DX Z (ip), vehicle: carboxymethylcellulose (CMC))?
Its T/C is 139 % of control.

What about the T/C (dose: 267.0 mg/kg/injection, schedule: Q01DX Z (ip), vehicle: saline) of the same compound?
Its T/C is 132 % of control.

What about the T/C (dose: 300.0 mg/kg/injection, schedule: Q01DX009 (ip), vehicle: other) of the same compound?
The T/C was 142 and 144 % of control.

And the T/C (dose: 400.0 mg/kg/injection, schedule: Q01DX010 (oral), vehicle: carboxymethylcellulose (CMC))?
The T/C was 126 % of control.

What about the survivor count (dose: 400.0 mg/kg/injection, schedule: Q## X090 (ip), vehicle: carboxymethylcellulose (CMC)) of the same compound?
The survivor count was 3 of 6.

What about the T/C (dose: 500.0 mg/kg/injection, schedule: Q01DX009 (oral), vehicle: carboxymethylcellulose (CMC)) of the same compound?
Its T/C is 128 % of control.

And the T/C (dose: 500.0 mg/kg/injection, schedule: Q03HX024 (oral), vehicle: water)?
Its T/C is 128 % of control.

What about the T/C (dose: 600.0 mg/kg/injection, schedule: Q04DX003 (ip), vehicle: other) of the same compound?
The T/C was 133 % of control.

And the T/C (dose: 800.0 mg/kg/injection, schedule: Q01DX010 (oral), vehicle: carboxymethylcellulose (CMC))?
Its T/C is 143 % of control.

And the survivor count (dose: 800.0 mg/kg/injection, schedule: Q## X090 (ip), vehicle: carboxymethylcellulose (CMC))?
Its survivor count is 1 of 6.

And the T/C (dose: 1000.0 mg/kg/injection, schedule: Q01DX009 (oral), vehicle: carboxymethylcellulose (CMC))?
Its T/C is 136 % of control.

And the survivor count (dose: 1600.0 mg/kg/injection, schedule: Q## X090 (ip), vehicle: carboxymethylcellulose (CMC))?
The survivor count was 4 of 6.

And the T/C (dose: 2000.0 mg/kg/injection, schedule: Q01DX009 (oral), vehicle: carboxymethylcellulose (CMC))?
Its T/C is 127 % of control [7 of 10 alive].

What about the T/C (dose: 2000.0 mg/kg/injection, schedule: Q03HX024 (oral), vehicle: carboxymethylcellulose (CMC)) of the same compound?
The T/C was 145 % of control.

How did the survivor count (dose: 200.0 mg/kg/injection, schedule: Q04DX003 (ip), vehicle: Klucel (hydroxypropylcellulose) (HPC)) turn out when `COc1cc([N+](=O)[O-])cc(C=O)c1O` was run?
The survivor count was 2 of 6.

What about the survivor count (dose: 400.0 mg/kg/injection, schedule: Q04DX003 (ip), vehicle: Klucel (hydroxypropylcellulose) (HPC)) of the same compound?
The survivor count was 3 of 6.

Which survivor count (dose: 200.0 mg/kg/injection, schedule: Q01DX001 (ip), vehicle: saline) does the source give for `Cc1cccc(C[Si](C)C)c1` here?
Its survivor count is 6 of 6.

How did the survivor count (dose: 100.0 mg/kg/injection, schedule: Q01DX001 (ip), vehicle: Klucel (hydroxypropylcellulose) (HPC)) turn out when `NC(CSSc1ccccc1)=NC1CCCCC1` was run?
Its survivor count is 0 of 3.

And the survivor count (dose: 200.0 mg/kg/injection, schedule: Q01DX001 (ip), vehicle: Klucel (hydroxypropylcellulose) (HPC))?
Its survivor count is 0 of 3.

What about the survivor count (dose: 400.0 mg/kg/injection, schedule: Q01DX001 (ip), vehicle: Klucel (hydroxypropylcellulose) (HPC)) of the same compound?
Its survivor count is 0 of 3.

For `O=C(O)c1oc(Br)cc1Br`, which survivor count (dose: 100.0 mg/kg/injection, schedule: Q04DX003 (ip), vehicle: other) is on record?
The survivor count was 4 of 6.

What about the survivor count (dose: 200.0 mg/kg/injection, schedule: Q04DX003 (ip), vehicle: other) of the same compound?
Its survivor count is 5 of 6.

What about the survivor count (dose: 400.0 mg/kg/injection, schedule: Q04DX003 (ip), vehicle: other) of the same compound?
Its survivor count is 3 of 6.

Which results are given for `CS(=O)(=O)OCCN(CCOS(C)(=O)=O)c1ccc(N=O)cc1`?
T/C (dose: 0.31 mg/kg/injection, schedule: Q01DX Z (ip), vehicle: saline): 142 % of control; T/C (dose: 0.32 mg/kg/injection, schedule: Q01DX Z (ip), vehicle: carboxymethylcellulose (CMC)): 132 % of control; T/C (dose: 0.32 mg/kg/injection, schedule: Q01DX Z (ip), vehicle: saline): 130 % of control; T/C (dose: 0.5 mg/kg/injection, schedule: Q01DX001 (ip), vehicle: saline): 132 % of control; T/C (dose: 0.64 mg/kg/injection, schedule: Q01DX Z (ip), vehicle: carboxymethylcellulose (CMC)): 125 % of control; T/C (dose: 0.64 mg/kg/injection, schedule: Q01DX Z (ip), vehicle: saline): 127 % of control; T/C (dose: 1.0 mg/kg/injection, schedule: Q01DX001 (ip), vehicle: saline): 129 and 132 % of control; T/C (dose: 2.0 mg/kg/injection, schedule: Q01DX001 (ip), vehicle: saline): 135 % of control; survivor count (dose: 2.5 mg/kg/injection, schedule: Q01DX Z (ip), vehicle: saline): 2 of 6; survivor count (dose: 4.0 mg/kg/injection, schedule: Q01DX001 (ip), vehicle: saline): 6 of 6; survivor count (dose: 8.0 mg/kg/injection, schedule: Q01DX001 (ip), vehicle: saline): 5 of 6
